Results are given in words; binding and its absence hold for the method and conditions named. Some binding calls cover weakened binding; strength is not graded here.
Molecular target: iRFP-pMagH-C-term scFvGCN4
Test: inferred from relocalisation of fluorescence in HeLa cells after light (nMagH with pMagH)

B1: N-term scFvGCN4-nMagH-fuRed (protein)
chain: MGPDIVMTQSPSSLSASVGDRVTITCRSSTGAVTTSNYASWVQEKPGKLFKGLIGGTNNRAPGVPSRFSGSLIGDKATLTISSLQPEDFATYFCALWYSNHWVFGQGTKVELKRGGGGSGGGGSGGGGSSGGGSEVKLLESGGGLVQPGGSLKLSCAVSGFSLTDYGVNWVRQAPGRGLEWIGVIWGDGITDYNSAGGGGSGGGGSHTLYAPGGYDIMGYLDQIGNRPNPQVELGPVDTSCALILCDLKQKDTPIVYASEAFLYMTGYSNAEVLGRNCRFLQSPDGMVKPKSTRKYVDSNTINTIRKAIDRNAEVQVEVVNFKKNGQRFVNFLTIIPVRDETGEYRYSMGFQCETEMVSELIKENMPMKLYMEGTVNNHHFKCTSEGEGKPYEGTQTMRIKVVEGGPLPFAFDILATSFMYGSRTFIKHPPGIPDFFKQSFPEGFTWERVTTYEDGGVLTATQDTSLQDGCLIYNVKVRGVNFPANGPVMQKKTLGWEASTETMYPADGGLEGACDMALKLVGGGHLICNLETTYRSKKPATNLKMPGVYNVDHRLERIKEADDETYVEQHEVAVARYSTGGAGDGGK
Question: B1 was tested. Which binding did it give?
Answer: Its binding is “binds”.
